Laboratory results reported in PMC5561029.
For at least one entry, the source does not settle the construct or the ends of the probe. Where cells or extracts were used, other partners may take part. For some of these results: Negatives hold for the conditions tested. For some of these results: At least one verdict rests on a figure or table, not on a statement of the authors.

Sequences of proteins named here, by UniProt entry; tags and fusion partners are left off. A change or cut given only in a name is not applied to a line headed by its entry.
UniProt P42224: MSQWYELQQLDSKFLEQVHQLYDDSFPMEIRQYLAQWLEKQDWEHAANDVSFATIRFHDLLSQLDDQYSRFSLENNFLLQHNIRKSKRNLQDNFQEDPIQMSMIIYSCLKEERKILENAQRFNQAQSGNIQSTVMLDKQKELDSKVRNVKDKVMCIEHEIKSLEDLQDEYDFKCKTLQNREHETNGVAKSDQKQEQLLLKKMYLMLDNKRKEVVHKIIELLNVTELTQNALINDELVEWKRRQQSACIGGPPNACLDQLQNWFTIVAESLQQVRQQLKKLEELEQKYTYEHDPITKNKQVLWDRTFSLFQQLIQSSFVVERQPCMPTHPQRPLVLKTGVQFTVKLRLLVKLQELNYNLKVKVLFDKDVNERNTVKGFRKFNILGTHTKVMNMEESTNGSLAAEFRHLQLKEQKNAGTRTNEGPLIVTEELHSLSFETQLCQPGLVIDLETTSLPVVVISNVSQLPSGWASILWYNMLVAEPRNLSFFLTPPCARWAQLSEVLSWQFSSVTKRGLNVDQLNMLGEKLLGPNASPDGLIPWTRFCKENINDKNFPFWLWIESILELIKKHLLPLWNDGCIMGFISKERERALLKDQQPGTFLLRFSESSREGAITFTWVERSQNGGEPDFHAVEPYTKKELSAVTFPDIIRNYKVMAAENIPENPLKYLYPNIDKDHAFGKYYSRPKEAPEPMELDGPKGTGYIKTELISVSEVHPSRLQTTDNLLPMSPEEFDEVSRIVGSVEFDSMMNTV
UniProt P40763, whole entry: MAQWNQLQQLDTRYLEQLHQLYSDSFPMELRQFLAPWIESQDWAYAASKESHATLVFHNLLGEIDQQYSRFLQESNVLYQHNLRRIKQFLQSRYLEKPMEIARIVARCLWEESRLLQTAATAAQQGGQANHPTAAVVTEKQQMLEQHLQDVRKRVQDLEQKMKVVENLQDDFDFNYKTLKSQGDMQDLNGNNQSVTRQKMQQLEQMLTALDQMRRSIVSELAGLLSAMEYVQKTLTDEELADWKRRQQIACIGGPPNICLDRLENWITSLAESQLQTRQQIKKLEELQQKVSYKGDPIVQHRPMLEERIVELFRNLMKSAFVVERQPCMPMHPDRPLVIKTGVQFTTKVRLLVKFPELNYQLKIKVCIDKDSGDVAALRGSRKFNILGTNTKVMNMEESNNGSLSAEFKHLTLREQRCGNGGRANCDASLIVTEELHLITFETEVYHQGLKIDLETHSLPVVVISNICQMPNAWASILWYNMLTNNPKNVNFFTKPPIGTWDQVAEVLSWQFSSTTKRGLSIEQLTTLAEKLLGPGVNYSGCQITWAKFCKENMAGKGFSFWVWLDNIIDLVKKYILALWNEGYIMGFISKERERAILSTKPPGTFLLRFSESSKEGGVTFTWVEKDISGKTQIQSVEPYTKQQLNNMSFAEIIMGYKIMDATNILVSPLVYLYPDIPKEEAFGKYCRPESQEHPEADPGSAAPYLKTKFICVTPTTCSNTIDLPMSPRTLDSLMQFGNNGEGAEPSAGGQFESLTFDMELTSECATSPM

Legend:
STAT-1 + c-Jun = assay: EMSA supershift; conditions: HDLC, 5 ug nuclear extract, 20 mM HEPES pH 7.8, 1 mM MgCl2, 0.5 mM DTT, 40-80 mM KCl, 5% glycerol, 20 min, RT, protein in an extract, label: 32P (dCTP fill-in)
[1] = molecular target: STAT-1 (Homo sapiens (SW480/HepG2 nuclear extract)) (UniProt P42224); assay: EMSA; conditions: 5 ug nuclear extract, 20 mM HEPES pH 7.8, 1 mM MgCl2, 0.5 mM DTT, 40-80 mM KCl, 5% glycerol, 20 min, RT, protein in an extract, label: 32P (dCTP fill-in)
[2] = molecular target: STAT-1 (Homo sapiens (SW480/HepG2 nuclear extract)) (UniProt P42224); assay: EMSA supershift; conditions: HDLC, blocked by anti-STAT-1, IFN-gamma reduces; 5 ug nuclear extract, 20 mM HEPES pH 7.8, 1 mM MgCl2, 0.5 mM DTT, 40-80 mM KCl, 5% glycerol, 20 min, RT; protein in an extract; label: 32P (dCTP fill-in)
[3] = system: STAT-1 + Fos family (pan-Fos antibody); assay: EMSA supershift; conditions: HDLC, blocked by anti-STAT-1, supershifted by anti-pan-Fos, PMA enhances, IFN-gamma reduces; 5 ug nuclear extract, 20 mM HEPES pH 7.8, 1 mM MgCl2, 0.5 mM DTT, 40-80 mM KCl, 5% glycerol, 20 min, RT; protein in an extract; label: 32P (dCTP fill-in)
STAT-1 + STAT-3 = assay: EMSA; conditions: IL-6 treated extract, STAT-1/STAT-3 heterodimer; 5 ug nuclear extract, 20 mM HEPES pH 7.8, 1 mM MgCl2, 0.5 mM DTT, 40-80 mM KCl, 5% glycerol, 20 min, RT; protein in an extract; label: 32P (dCTP fill-in)
[4] = molecular target: STAT-3 (Homo sapiens (SW480/HepG2 nuclear extract)) (UniProt P40763); assay: EMSA; conditions: IL-6 treated extract, STAT-3 homodimer; 5 ug nuclear extract, 20 mM HEPES pH 7.8, 1 mM MgCl2, 0.5 mM DTT, 40-80 mM KCl, 5% glycerol, 20 min, RT; protein in an extract; label: 32P (dCTP fill-in)
[5] = HDLC, HepG2 extract, with 1 ug poly dI:dC (no AP-1 site)

GATCATCCTACTTTGAATTTGGAATGTTTGGAAATGGTC / AGCTGACCATTTCCAAACATTCCAAATTCAAAGTAGGAT [MMP-3 SBE II/III]
binding result (STAT-1 + c-Jun; anti-c-Jun reduces binding, IL-6 increases): binds

TCGACTGCCATTTGGATGAAAGCAAG / TCGACTTGCTTTCATCCAAATGGCAG [MMP-3 SBE I]
binding result ([1]; HDLC, HepG2 extract, SBE I without AP-1): binds | binding result [1, 5]: no binding

CCGGTACCAAGACAGGAAGCACTTCCTGGAGATTAATC / CAGTGATTAATCTCCAGGAAGTGCTTCCTGTCTTGGTA [MMP-3 SBE IV]
binding result [2]: binds

TCGACTGCCATTTGGATGAAAGCAAGGATGAGTCAAGC / TCGAGCTTGACTCATCCTTGCTTTCATCCAAATGGCAG [MMP-3 SBE I/AP-1]
binding result [3]: binds

TCGAGACACCTCTGGCTTTCTGGAAGGG / TCGACCCTTCCAGAAAGCCAGAGGTGTC [MMP-1 SBE]
binding result [1, 5]: no binding

TCGACGTCATTTCCCGTAAATCCCG / TCGACGGGATTTACGGGAAATGACG [SIE (c-fos, m67)]
binding result ([1]; IFN-gamma or IL-6 treated extract, STAT-1 homodimer): binds | binding result (STAT-1 + STAT-3): binds | binding result [4]: binds

GATGAGTCAGACAGCCTCTGGCTTTCTGGAAGGG / GATCCCCTTCCAGAAAGCCAGAGGCTGTCTGACTCATCGTAC [MMP-1 SBE/AP-1]
binding result (STAT-1 + c-Jun; constitutive and with IL-6, anti-c-Jun reduces binding): binds
